Literature values in patent publication US20100047294A1, “SEMI-FINISHED PRODUCT IN THE MANUFACTURE OF A COMPOSITION FOR SKIN OR HAIR CARE” (OY GRANULA AB LTD, priority 2006, published 2010).
At least one compound was matched to its structure with a doubt left.

Conditions: cited from earlier work

## COc1ccc(O)c(C(C)(C)C)c1 [BHA, butylated hydroxy aminol]
  cytotoxicity of prior art antioxidants: cytotoxic
